From PMC7819943, “Rice protein-binding microarrays: a tool to detect cis-acting elements near promoter regions in rice” come the findings set out here.

Some of the results follow.

The assay addresses T1, OsSMF1 (Oryza sativa, UniProt Q6ZLB0 1-436).
T1 sequence: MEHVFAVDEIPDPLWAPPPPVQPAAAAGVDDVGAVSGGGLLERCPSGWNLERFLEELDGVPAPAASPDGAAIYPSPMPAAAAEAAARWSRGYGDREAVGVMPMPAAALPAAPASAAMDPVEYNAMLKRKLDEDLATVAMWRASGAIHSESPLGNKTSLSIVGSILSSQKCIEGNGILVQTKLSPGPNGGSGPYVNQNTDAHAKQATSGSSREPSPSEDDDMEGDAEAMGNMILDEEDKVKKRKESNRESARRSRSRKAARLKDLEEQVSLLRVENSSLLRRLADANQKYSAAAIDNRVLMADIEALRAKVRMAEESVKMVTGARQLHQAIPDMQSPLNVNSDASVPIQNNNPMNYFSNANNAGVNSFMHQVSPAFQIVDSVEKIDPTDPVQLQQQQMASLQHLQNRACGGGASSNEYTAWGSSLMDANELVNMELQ
The experiment in a line: protein-binding microarray (RPBM); PBS, 2% BSA, 51.3 ng/ul salmon testes DNA, 50 uM zinc acetate, 200 nM TF, 25 C, 1 h; high values mean tight binding. The settings on record: protein: recombinant; tags: N-terminal polyhistidine and DsRed monomer fusion (pET32a); chain copies: 2; label: CyDye5-dUTP incorporated in the synthesized complementary strand; 3' TTTTT single-stranded linker to array surface; dsDNA, one strand shown. An outline of the steps:
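Binding signal here means per-feature fluorescence intensity in arbitrary units. The values were read on an Axon 4000B scanner after a custom Agilent array, double-stranded by primer extension with Cy5-dUTP, was incubated with 200 nM protein at 25 °C for 1 h in PBS with 2% BSA, salmon testes DNA and 50 µM zinc acetate, then washed. The proteins were transcription factors with an N-terminal polyhistidine tag and DsRed, expressed in E. coli BL21-CodonPlus and purified on Ni–NTA.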
As to “GAGAGAATAGTGTCTTCATAATAGATGAAGAATAAATATGCGGAGTCACCTAGTGCAG”, the binding signal is 4150 fluorescence intensity (a.u.).
Then “TTGAAAGCGGTTCCTCTGATGTAACATATCGTGACATGGTCGGAGTCACCTAGTGCAG”, with 4110 fluorescence intensity (a.u.); and “GAAGCCACTCCGCGCGCAGCTGGTGCTCAGGAGCGTCGATCGGAGTCACCTAGTGCAG”, with 6620 fluorescence intensity (a.u.); and “TCTATGGTGTCTCTAGAACCATCCTTCTTTCCTCTTGCTCCGGAGTCACCTAGTGCAG”, with 21200 fluorescence intensity (a.u.).
The result for “ACCGAGTAGATCACTTCCGTGCAAGTTGGTTGACAAGTATCGGAGTCACCTAGTGCAG” reads 3480 fluorescence intensity (a.u.); that for “ATGCGCCCATGCACTCCACGTAGCTAGCTAAGACGCGCCGCGGAGTCACCTAGTGCAG”, 5650 fluorescence intensity (a.u.); that for “CCTTGGTGTCTCCTGCCGCCCACGCACCCTCTTTCCCGTGCGGAGTCACCTAGTGCAG”, 3660 fluorescence intensity (a.u.).
Then “AATAATTTTCTCATTTTCTTTAACAGAAGATGACAATGCACGGAGTCACCTAGTGCAG”, with 34800 fluorescence intensity (a.u.); and “TCCCTTTCTGACGTGTGCTCATCCGACGCGAGGCTCCCGCCGGAGTCACCTAGTGCAG”, with 12800 fluorescence intensity (a.u.).
Turning to “TCTCCATCCTGCTAGCAGAGGTGGCGCCGGCGTCCTCCTGCGGAGTCACCTAGTGCAG”, the binding signal is 3280 ± 140 fluorescence intensity (a.u.).
Then “GCATTTGCACTTGTAGGCGTGTGTTTTATGACACATTCTACGGAGTCACCTAGTGCAG”, with 3680 fluorescence intensity (a.u.); and “GGAGATGAGGTGGGAGGTGGATTTGGTGTTGTTCAAGACCCGGAGTCACCTAGTGCAG”, with 4420 fluorescence intensity (a.u.); and “AAATACAACGGAAACGTAATGACGCTACGATAATCTATCTCGGAGTCACCTAGTGCAG”, with 3730 fluorescence intensity (a.u.).
Then “TGTCCAGATTTGTAGTACTAGAATGTGTCATATCCCGTTACGGAGTCACCTAGTGCAG”, with 7020 fluorescence intensity (a.u.).
Then “TGTGTACAGAAAGTTGTCACCATCCAACACGTGAACTTTCCGGAGTCACCTAGTGCAG”, with 4030 fluorescence intensity (a.u.); and “AGATTTTGAATTCGTAGCTCTAGCCTACGTGACACTCTGACGGAGTCACCTAGTGCAG”, with 3200 fluorescence intensity (a.u.).
“GATTAGACCCGCGGGCGCGGTGAGTTGGACGTGTGGTCCTCGGAGTCACCTAGTGCAG”: the binding signal was 3580 fluorescence intensity (a.u.).
On to “TGGGTCCCACGCAATAGTGGACCTGATGAATTGCAGGATTCGGAGTCACCTAGTGCAG”, for which the binding signal was 41100 fluorescence intensity (a.u.).
Then “CCCTCGAGCTTTTAGCCCCGTGACGTCGCAGTCCTCCAAGCGGAGTCACCTAGTGCAG”, with 9630 fluorescence intensity (a.u.); and “AAATACGTCTCACTAACTGAAGTACGTGTAAATTGAGCCCCGGAGTCACCTAGTGCAG”, with 3510 fluorescence intensity (a.u.); and “CCTCCTCCAAGTCTGACCGTGCGCCGCGCGTGTCGTACGTCGGAGTCACCTAGTGCAG”, with 3320 fluorescence intensity (a.u.).
Then “AAAGGCCTACAAAGTTTGCGTTCTTGAGAGAAAGAGGGTGCGGAGTCACCTAGTGCAG”, with 4230 fluorescence intensity (a.u.).
Regarding “AAGAACCGGGCGGCCGATCCGGTGGCCTCGCAGGAGGCGACGGAGTCACCTAGTGCAG”, the binding signal was 28500 fluorescence intensity (a.u.).
On to “ACTGGCGGTTGCCCTCGCACATGTCGTGGTAGTAGCTGTGCGGAGTCACCTAGTGCAG”, for which the binding signal is 3340 fluorescence intensity (a.u.).
As to “CCACTCCGTACCGGCCGCGCCATGGATTCCACGCGGTGGCCGGAGTCACCTAGTGCAG”, the binding signal is 3470 fluorescence intensity (a.u.).
As to “TCGTGCACAGGTACACTGACCCAAGACCATTGCAACGTGCCGGAGTCACCTAGTGCAG”, the binding signal is 3330 fluorescence intensity (a.u.).
As for “TACTTCAAACGTGTCTCCGTATATCCGATGTGACACGTCACGGAGTCACCTAGTGCAG”, the binding signal is 20400 fluorescence intensity (a.u.).
Take “AATGCCTCTCCTCTCGCCTCGTCACTTTGAGCTCAGTAGACGGAGTCACCTAGTGCAG”: the binding signal was 3220 fluorescence intensity (a.u.).
Then “GCTCGATTTCGTCGTGTGTTCTTCTCCGTCTCCGATGACTCGGAGTCACCTAGTGCAG”, with 3240 fluorescence intensity (a.u.); and “GATAGTGTGCAAACCACGGCGCACACTCTGGCCGGTCGTCCGGAGTCACCTAGTGCAG”, with 3340 fluorescence intensity (a.u.); and “AGGCAGACGTTCAGCAGCCGCGTCGGCAGCAGCCACCGCCCGGAGTCACCTAGTGCAG”, with 3360 fluorescence intensity (a.u.).
The result for “CTCATCATCTCTCTCACAATTGCCAACGCCACTGCATGCCCGGAGTCACCTAGTGCAG” reads 4400 fluorescence intensity (a.u.).
The result for “TAAAACATCAAATATGTGTCACCACTATAGGCCTTTTCCCCGGAGTCACCTAGTGCAG” reads 4670 fluorescence intensity (a.u.); that for “AAAGGATTCATGTCATGCACACGTAGTAATCATAATTCAGCGGAGTCACCTAGTGCAG”, 3440 fluorescence intensity (a.u.).
For the sequence “ATCCATCCAAATTAATCATTAATCAACAAGAGATGAGGAACGGAGTCACCTAGTGCAG”, the binding signal is 23900 fluorescence intensity (a.u.).
The result for “ACAACTCGCTATGACTCACTCACCAATTACCATTCTTAACCGGAGTCACCTAGTGCAG” reads 9980 fluorescence intensity (a.u.); that for “ACACAACACCACGCACGCCCACCACCGCTAAACAGACAGTCGGAGTCACCTAGTGCAG”, 4550 fluorescence intensity (a.u.).
The result for “CGTCACCCGCGTGGCCACGTCGATGGCACCGACGTCGTCGCGGAGTCACCTAGTGCAG” reads 6860 fluorescence intensity (a.u.); that for “CTCGATGCTGGATGACAGGATCAAGCCGGACGAGTTCACCCGGAGTCACCTAGTGCAG”, 5360 fluorescence intensity (a.u.).
The result for “ACCATCCATCCAGCCAGCCAGCCAGCCACATCATATGTCCCGGAGTCACCTAGTGCAG” reads 7730 fluorescence intensity (a.u.); that for “TCCCGCGACGTCGTCGTCATCGACTACTCCATCGCGGCCGCGGAGTCACCTAGTGCAG”, 5000 fluorescence intensity (a.u.); that for “CATTTGCTTAATTTCCACATGAGATGCTAAAGAAGTTTTACGGAGTCACCTAGTGCAG”, 3500 fluorescence intensity (a.u.).
On to “CTGACTATAATGCCACGTCAGCCAACACAACTATTCCTATCGGAGTCACCTAGTGCAG”, for which the binding signal is 22600 fluorescence intensity (a.u.).
Then “GCAAAATGTCAGGCCGACACAACCCGTCATACTCTTCATGCGGAGTCACCTAGTGCAG”, with 3480 fluorescence intensity (a.u.); and “AGTAGGCTGCCATGTAGATGTCACGTCAACGAAATCCGCTCGGAGTCACCTAGTGCAG”, with 5220 fluorescence intensity (a.u.); and “TCAATGCTATGTTCTGTAGTGAGTCATGGTCAGTGATAGACGGAGTCACCTAGTGCAG”, with 8320 fluorescence intensity (a.u.).
Then “ACCAAACAAGCTGTTAATTAGTGACGCAAACCATCAACCACGGAGTCACCTAGTGCAG”, with 4470 fluorescence intensity (a.u.); and “GGGCCTCCAGCGCTCCCCGCCGCCGGCGCTCCAGCTCCCGCGGAGTCACCTAGTGCAG”, with 3670 fluorescence intensity (a.u.); and “CGCATCCCGACCAAACTACCCCACTACAAGACAAACCAGCCGGAGTCACCTAGTGCAG”, with 3780 fluorescence intensity (a.u.).
As for “CACTTGATCCGATGGTTGCAAGATGTTGATGACGTGGCTTCGGAGTCACCTAGTGCAG”, the binding signal is 14900 fluorescence intensity (a.u.).
The result for “CCCAAGTCACCACCTCACCTCACCACCACCCACCTCGTCTCGGAGTCACCTAGTGCAG” reads 5600 fluorescence intensity (a.u.).
Then “CTCTTTATAACTTGGTTACTTCCAGACTGATGTCATTTTCCGGAGTCACCTAGTGCAG”, with 36600 fluorescence intensity (a.u.); and “CCCAACCTCCCTCCCTCGCGTGCGCAATGACCTACACAACCGGAGTCACCTAGTGCAG”, with 4180 fluorescence intensity (a.u.).
As to “CTAGCCCTTGCTTCATTTTACGTGTTGGGAGGGAAGGGGTCGGAGTCACCTAGTGCAG”, the binding signal is 4200 fluorescence intensity (a.u.).
